Binding data for eight molecules are collected here from article PMC6830812.

The target in experiment [1] is T1, MBP-tagged yeast Pdc1p (yeast (Saccharomyces cerevisiae)) (UniProt P06169).
T1 sequence: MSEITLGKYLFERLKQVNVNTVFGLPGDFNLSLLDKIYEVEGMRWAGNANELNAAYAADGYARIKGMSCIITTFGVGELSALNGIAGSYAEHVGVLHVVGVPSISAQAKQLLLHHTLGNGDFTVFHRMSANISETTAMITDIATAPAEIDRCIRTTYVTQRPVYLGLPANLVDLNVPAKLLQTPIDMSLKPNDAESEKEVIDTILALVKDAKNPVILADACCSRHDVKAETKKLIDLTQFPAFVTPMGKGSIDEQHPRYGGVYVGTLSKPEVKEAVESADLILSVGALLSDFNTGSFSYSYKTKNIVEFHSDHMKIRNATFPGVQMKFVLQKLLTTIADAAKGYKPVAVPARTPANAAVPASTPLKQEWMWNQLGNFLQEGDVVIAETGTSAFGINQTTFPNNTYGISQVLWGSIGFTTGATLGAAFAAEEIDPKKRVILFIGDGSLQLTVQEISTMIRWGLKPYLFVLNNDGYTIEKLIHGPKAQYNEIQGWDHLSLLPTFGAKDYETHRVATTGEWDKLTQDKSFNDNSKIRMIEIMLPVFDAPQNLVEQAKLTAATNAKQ
As to the kind of experiment: pull-down; MBP-tagged proteins from E. coli held on the maltose column capture GST-His6-tagged proteins from E. coli; captured protein detected with anti-His antibody; MBP as negative control; only the target purified.

Another experiment deals with T2, MBP-AtPdc1 (Arabidopsis) (UniProt O82647).
T2 sequence: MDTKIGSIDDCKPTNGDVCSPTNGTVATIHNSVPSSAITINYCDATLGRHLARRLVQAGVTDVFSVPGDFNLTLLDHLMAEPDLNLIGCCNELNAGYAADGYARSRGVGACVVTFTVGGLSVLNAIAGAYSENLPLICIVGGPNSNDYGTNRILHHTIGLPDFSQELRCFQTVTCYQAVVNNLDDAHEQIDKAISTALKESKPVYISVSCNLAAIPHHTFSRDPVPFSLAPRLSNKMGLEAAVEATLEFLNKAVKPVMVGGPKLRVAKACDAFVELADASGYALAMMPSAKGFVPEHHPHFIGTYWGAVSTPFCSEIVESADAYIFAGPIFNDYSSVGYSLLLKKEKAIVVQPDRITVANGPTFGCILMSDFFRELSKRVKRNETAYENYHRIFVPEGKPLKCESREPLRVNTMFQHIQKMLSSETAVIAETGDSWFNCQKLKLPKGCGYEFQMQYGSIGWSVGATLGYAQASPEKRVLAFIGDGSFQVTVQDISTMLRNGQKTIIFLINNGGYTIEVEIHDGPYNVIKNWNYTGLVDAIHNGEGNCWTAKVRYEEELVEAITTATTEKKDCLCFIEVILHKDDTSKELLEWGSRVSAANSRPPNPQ
Described as above.

Experiment [2] deals with CIRV Flag-p95 replication protein (carnation Italian ringspot virus (CIRV)). As to the kind of experiment: co-IP; Flag-affinity purification of the Flag-tagged replication proteins from the detergent-solubilized membrane fraction of yeast; samples cross-linked with formaldehyde in intact yeast cells; co-purified His6-tagged proteins detected with anti-His antibody; in Fig 2I samples taken 0, 1 h and 2.5 h after cycloheximide (100 ug/ml).

Experiment [3] concerns the target CIRV Flag-p36 replication protein (carnation Italian ringspot virus (CIRV)). Described as above.
Experiment [4] deals with CIRV p36-cYFP (carnation Italian ringspot virus (CIRV)). As to the kind of experiment: split reporter; BiFC in N. benthamiana leaves; cYFP-tagged replication proteins and nYFP-tagged host proteins expressed via agroinfiltration; confocal microscopy with peroxisomal or mitochondrial markers.

These are yes or no findings as the source states them, for the method shown. In cells and extracts the contact can be indirect. Binding can be weak; no strength is given. Where a sequence is shown, tags or fusion partners need not be part of it.

For “GST-His6-p33C (C-terminal, soluble portion of TBSV p33) (tomato bushy stunt virus (TBSV)) (domain or fragment)”, the binding result (in experiment [1]; with MBP-AtPdc1 (Arabidopsis)) was “binds” throughout.

B1: yeast His6-Pdc1p (enzyme, UniProt P06169 1-563)
chain: MSEITLGKYLFERLKQVNVNTVFGLPGDFNLSLLDKIYEVEGMRWAGNANELNAAYAADGYARIKGMSCIITTFGVGELSALNGIAGSYAEHVGVLHVVGVPSISAQAKQLLLHHTLGNGDFTVFHRMSANISETTAMITDIATAPAEIDRCIRTTYVTQRPVYLGLPANLVDLNVPAKLLQTPIDMSLKPNDAESEKEVIDTILALVKDAKNPVILADACCSRHDVKAETKKLIDLTQFPAFVTPMGKGSIDEQHPRYGGVYVGTLSKPEVKEAVESADLILSVGALLSDFNTGSFSYSYKTKNIVEFHSDHMKIRNATFPGVQMKFVLQKLLTTIADAAKGYKPVAVPARTPANAAVPASTPLKQEWMWNQLGNFLQEGDVVIAETGTSAFGINQTTFPNNTYGISQVLWGSIGFTTGATLGAAFAAEEIDPKKRVILFIGDGSLQLTVQEISTMIRWGLKPYLFVLNNDGYTIEKLIHGPKAQYNEIQGWDHLSLLPTFGAKDYETHRVATTGEWDKLTQDKSFNDNSKIRMIEIMLPVFDAPQNLVEQAKLTAATNAKQ
B1: the binding entry in experiment [2] and in experiment [3] was “binds” in each case.

B2: yeast His6-Pdc1^S455F mutant (enzyme, UniProt P06169 1-563)
chain: MSEITLGKYLFERLKQVNVNTVFGLPGDFNLSLLDKIYEVEGMRWAGNANELNAAYAADGYARIKGMSCIITTFGVGELSALNGIAGSYAEHVGVLHVVGVPSISAQAKQLLLHHTLGNGDFTVFHRMSANISETTAMITDIATAPAEIDRCIRTTYVTQRPVYLGLPANLVDLNVPAKLLQTPIDMSLKPNDAESEKEVIDTILALVKDAKNPVILADACCSRHDVKAETKKLIDLTQFPAFVTPMGKGSIDEQHPRYGGVYVGTLSKPEVKEAVESADLILSVGALLSDFNTGSFSYSYKTKNIVEFHSDHMKIRNATFPGVQMKFVLQKLLTTIADAAKGYKPVAVPARTPANAAVPASTPLKQEWMWNQLGNFLQEGDVVIAETGTSAFGINQTTFPNNTYGISQVLWGSIGFTTGATLGAAFAAEEIDPKKRVILFIGDGSLQLTVQEIFTMIRWGLKPYLFVLNNDGYTIEKLIHGPKAQYNEIQGWDHLSLLPTFGAKDYETHRVATTGEWDKLTQDKSFNDNSKIRMIEIMLPVFDAPQNLVEQAKLTAATNAKQ
Regarding B2, the binding result in experiment [2] and in experiment [3] was “binds” throughout.

B3: His6-AtAdh1 (expressed in yeast) (enzyme, UniProt P06525 1-379)
chain: MSTTGQIIRCKAAVAWEAGKPLVIEEVEVAPPQKHEVRIKILFTSLCHTDVYFWEAKGQTPLFPRIFGHEAGGIVESVGEGVTDLQPGDHVLPIFTGECGECRHCHSEESNMCDLLRINTERGGMIHDGESRFSINGKPIYHFLGTSTFSEYTVVHSGQVAKINPDAPLDKVCIVSCGLSTGLGATLNVAKPKKGQSVAIFGLGAVGLGAAEGARIAGASRIIGVDFNSKRFDQAKEFGVTECVNPKDHDKPIQQVIAEMTDGGVDRSVECTGSVQAMIQAFECVHDGWGVAVLVGVPSKDDAFKTHPMNFLNERTLKGTFFGNYKPKTDIPGVVEKYMNKELELEKFITHTVPFSEINKAFDYMLKGESIRCIITMGA
On to B3, for which the binding entry in experiment [3] is “binds”.

B4: nYFP-AtAdh1 (enzyme, UniProt P06525 1-379)
chain: MSTTGQIIRCKAAVAWEAGKPLVIEEVEVAPPQKHEVRIKILFTSLCHTDVYFWEAKGQTPLFPRIFGHEAGGIVESVGEGVTDLQPGDHVLPIFTGECGECRHCHSEESNMCDLLRINTERGGMIHDGESRFSINGKPIYHFLGTSTFSEYTVVHSGQVAKINPDAPLDKVCIVSCGLSTGLGATLNVAKPKKGQSVAIFGLGAVGLGAAEGARIAGASRIIGVDFNSKRFDQAKEFGVTECVNPKDHDKPIQQVIAEMTDGGVDRSVECTGSVQAMIQAFECVHDGWGVAVLVGVPSKDDAFKTHPMNFLNERTLKGTFFGNYKPKTDIPGVVEKYMNKELELEKFITHTVPFSEINKAFDYMLKGESIRCIITMGA
With B4, the binding result in experiment [4] was “binds”.

B5: Arabidopsis His6-AtPdc1 (expressed in yeast) (enzyme, UniProt O82647 1-607)
chain: MDTKIGSIDDCKPTNGDVCSPTNGTVATIHNSVPSSAITINYCDATLGRHLARRLVQAGVTDVFSVPGDFNLTLLDHLMAEPDLNLIGCCNELNAGYAADGYARSRGVGACVVTFTVGGLSVLNAIAGAYSENLPLICIVGGPNSNDYGTNRILHHTIGLPDFSQELRCFQTVTCYQAVVNNLDDAHEQIDKAISTALKESKPVYISVSCNLAAIPHHTFSRDPVPFSLAPRLSNKMGLEAAVEATLEFLNKAVKPVMVGGPKLRVAKACDAFVELADASGYALAMMPSAKGFVPEHHPHFIGTYWGAVSTPFCSEIVESADAYIFAGPIFNDYSSVGYSLLLKKEKAIVVQPDRITVANGPTFGCILMSDFFRELSKRVKRNETAYENYHRIFVPEGKPLKCESREPLRVNTMFQHIQKMLSSETAVIAETGDSWFNCQKLKLPKGCGYEFQMQYGSIGWSVGATLGYAQASPEKRVLAFIGDGSFQVTVQDISTMLRNGQKTIIFLINNGGYTIEVEIHDGPYNVIKNWNYTGLVDAIHNGEGNCWTAKVRYEEELVEAITTATTEKKDCLCFIEVILHKDDTSKELLEWGSRVSAANSRPPNPQ
In the case of B5, the binding result in experiment [2] and in experiment [3] was “binds” throughout.

B6: nYFP-AtPdc1 (enzyme, UniProt O82647 1-607)
chain: MDTKIGSIDDCKPTNGDVCSPTNGTVATIHNSVPSSAITINYCDATLGRHLARRLVQAGVTDVFSVPGDFNLTLLDHLMAEPDLNLIGCCNELNAGYAADGYARSRGVGACVVTFTVGGLSVLNAIAGAYSENLPLICIVGGPNSNDYGTNRILHHTIGLPDFSQELRCFQTVTCYQAVVNNLDDAHEQIDKAISTALKESKPVYISVSCNLAAIPHHTFSRDPVPFSLAPRLSNKMGLEAAVEATLEFLNKAVKPVMVGGPKLRVAKACDAFVELADASGYALAMMPSAKGFVPEHHPHFIGTYWGAVSTPFCSEIVESADAYIFAGPIFNDYSSVGYSLLLKKEKAIVVQPDRITVANGPTFGCILMSDFFRELSKRVKRNETAYENYHRIFVPEGKPLKCESREPLRVNTMFQHIQKMLSSETAVIAETGDSWFNCQKLKLPKGCGYEFQMQYGSIGWSVGATLGYAQASPEKRVLAFIGDGSFQVTVQDISTMLRNGQKTIIFLINNGGYTIEVEIHDGPYNVIKNWNYTGLVDAIHNGEGNCWTAKVRYEEELVEAITTATTEKKDCLCFIEVILHKDDTSKELLEWGSRVSAANSRPPNPQ
For the molecule B6, the binding result in experiment [4] is on record as “binds”.

B7: yeast His6-Adh1p (enzyme, UniProt P00330 1-348)
chain: MSIPETQKGVIFYESHGKLEYKDIPVPKPKANELLINVKYSGVCHTDLHAWHGDWPLPVKLPLVGGHEGAGVVVGMGENVKGWKIGDYAGIKWLNGSCMACEYCELGNESNCPHADLSGYTHDGSFQQYATADAVQAAHIPQGTDLAQVAPILCAGITVYKALKSANLMAGHWVAISGAAGGLGSLAVQYAKAMGYRVLGIDGGEGKEELFRSIGGEVFIDFTKEKDIVGAVLKATDGGAHGVINVSVSEAAIEASTRYVRANGTTVLVGMPAGAKCCSDVFNQVVKSISIVGSYVGNRADTREALDFFARGLVKSPIKVVGLSTLPEIYEKMEKGQIVGRYVVDTSK
As to B7, the binding entry in experiment [2] and in experiment [3] was “binds” throughout.
